Reference: the supplement of paper PMC5949888
± gives the standard deviation of the averaged measurements. Most values lie at the floor of the assay. Slopes are relative: functional sequences can read slightly below zero.

What follows are substances tested on Saccharomyces cerevisiae PS128 hsf1 delta, HSF1(1-493) fusion (assay: growth estimate (transactivation domain function in HSF1 fusion, heat-shock survival) (a.u. (slope of normalised read count over time)); higher = stronger growth at 37°C, i.e. more transactivation activity). Conditions: library: random library.

Row | Substance | growth estimate
1 | IVISAIIFGLRA | < -0.25
2 | YGTEACRRRE | < -0.25
3 | YSVEDPGRRPVAGQQLASLV | < -0.25
4 | VCPFVLPESEELG | < -0.25
5 | RAIVPL | < -0.25
6 | AIGSWCGHYHTNTVCAVHVH | < -0.25
7 | IDMCGLSA | -0.246
8 | GVQCG | < -0.25
9 | WGMYETLVS | -0.219
10 | SGTRGPCKHVMIGRGDVACP | < -0.25
11 | GLHW | < -0.25
12 | QHDVKNNQIRN | < -0.25
13 | PGWGSQG | < -0.25
14 | AHLKSYRRVLDR | -0.248
15 | FRVCRR | < -0.25
16 | GIRTVPWIQCLKAVGI | < -0.25
17 | QNAQTQLYDIADYVSGVRCD | 0.877
18 | TVSPLWAVGHPMGHGLLLPY | < -0.25
19 | VYLSGNTR | < -0.25
20 | RPSVRCGSNESRFGGVKIHP | -0.231
21 | EISSAWTRLRD | < -0.25
22 | KRLVARPNATLVA | < -0.25
23 | VMPGWSGMRLLKSSNSCGCP | < -0.25
24 | SPIMQQGS | < -0.25
25 | LWGHPAGNVGEGEFAGVQR | < -0.25
26 | NNAWTSSMACAQGRLSPSTM | < -0.25

Row | Substance | growth estimate
27 | STRASVKT | < -0.25
28 | NDSEGS | < -0.25
29 | GCDLARTILR | < -0.25
30 | PCFYGPFYAPGVSVKRPLQA | < -0.25
31 | QLIDDYCDRMSSVYHQPGHK | < -0.25
32 | AAILPRTQYIYHLSGSTGHH | < -0.25
33 | MKLDHELRTQVGNPLHFADR | < -0.25
34 | VHRQLLHFGMIRPGFPSQYR | < -0.25
35 | ERELMV | < -0.25
36 | LKRYCSPGGLGRNSTIMIVM | < -0.25
37 | KVFLWRVLETW | < -0.25
38 | SDPIWLKGISKCPHVGVQGK | < -0.25
39 | TATSWIWVDKTGMRAYLITD | < -0.25
40 | SSGIYCAACKAGWRPFITGQ | < -0.25
41 | RSA | -0.248 ± 0.003
42 | DRKPCLNLNNPISRFLRERA | -0.243
43 | TAWGRWHSTCRWTLGYCQVT | < -0.25
44 | GCGLTDQYACLLGPFYASKI | < -0.25
45 | MGSAQRRCTLISTWDPEH | < -0.25
46 | KRYPSGA | < -0.25
47 | PSKDSVG | < -0.25
48 | STSRSSTS | < -0.25
49 | KCQSGDTQSGEDVGLFLRRV | < -0.25
50 | TGSPTDQR | < -0.25
51 | GSP | < -0.25
52 | SAVVQGGPPYPNGRVCRVGF | < -0.25

Row | Substance | growth estimate
53 | QSPS | < -0.25
54 | LPIGLISLLGPVLGTCCRTV | < -0.25
55 | RVELAMR | < -0.25
56 | ILAVDDC | < -0.25
57 | LNTV | < -0.25
58 | GIH | -0.224
59 | TDASVTLYPLS | < -0.25
60 | TALRCIGRLGICPSISASSK | < -0.25
61 | SRLWHSCKPRR | < -0.25
62 | CHVRAFNFTLMCAAHRRTTD | < -0.25
63 | AVKHAQSLVKLGIGIIDGQG | < -0.25
64 | IFTGFGWVCGP | < -0.25
65 | TGRVYRVPGYGREAPIIVK | < -0.25
66 | CGRARGVPARAGR | < -0.25
67 | RRFRDGADRGIRKLGKFSPS | < -0.25
68 | TEKWGSP | < -0.25
69 | WSQKFYGGLGHIRSGLGHSF | 2.22
70 | PSLVCIQGM | < -0.25
71 | SQRFWIDASGSVTVFYVGTT | < -0.25
72 | RMN | < -0.25
73 | PFVVRREVVLRRLPGIYAYP | < -0.25
74 | CGAY | < -0.25
75 | CQSDRPQQGRDVLPLQ | < -0.25
76 | RYRDNGTAEVYEWRVVYPWF | < -0.25
77 | NPFWRTGVEQAQTDGGCMHN | < -0.25
78 | GFRAKFSTPPPGVVTRVFAD | -0.248

Row | Substance | growth estimate
79 | NRICVRCCFLYRGRTS | < -0.25
80 | ITRSVHSPDIRFSLFHTI | < -0.25
81 | EPQTLWVTNGFV | < -0.25
82 | SLRVEICGSGRPGSSRCHGR | < -0.25
83 | RGTR | < -0.25
84 | YYWRVKRVALLRSPSRGSCA | < -0.25
85 | KSQHLRVRVYCHAETNLIPG | < -0.25
86 | RFCATSECSNVAFVA | < -0.25
87 | LKSGQARLSRFSRCIGCPHP | < -0.25
88 | VTLQ | -0.245
89 | SEVGKLRVSGSYGSFTPSLA | < -0.25
90 | REGKYGVGGTN | < -0.25
91 | PTA | -0.0849 ± 0.23
92 | LWRHST | < -0.25
93 | VHLRGVRSLSAGGSVA | < -0.25
94 | GWGATGPLCLV | < -0.25
95 | VVYTCTG | < -0.25
96 | PLIFQGVRFCQSMVVSQRIE | < -0.25
97 | VSSPVISLLLVGTLGKDRAR | < -0.25
98 | RLWTRTHVHSTSGVLARADL | < -0.25
99 | SCLLHSYLPRVMSVC | < -0.25
100 | RIIWNLATPLSALPRTHGAL | < -0.25
101 | HEELSLRAMTK | < -0.25
102 | ERRMSMPLGGHMRFAYRP | < -0.25
103 | RSDLRSQLGMYQHWVGGHAT | < -0.25
104 | LGG | -0.2492 ± 0.0011

Row | Substance | growth estimate
105 | DPVHTG | < -0.25
106 | GRALVDFYSV | < -0.25
107 | PLRGIRRVAGFLGLIPADIG | < -0.25
108 | VTNRYGLALLLAGVLCIRVI | -0.246
109 | GGHPE | < -0.25
110 | DPVRNYNLKHGTPVAIGFAS | -0.246
111 | YVGSRLGYLGWRAGY | < -0.25
112 | TGAGGGRRFILASMLCEFLC | < -0.25
113 | VCTV | < -0.25
114 | WGLIAECTIRRRETS | < -0.25
115 | RIKEVSWVVFESSRSCAAAV | < -0.25
116 | HHGEGV | < -0.25
117 | MNKKWASHPERSCLAYV | < -0.25
118 | DPCTGSARGGTGEVVLVSRP | < -0.25
119 | STGYTIHIPGEPRTHLKCIG | < -0.25
120 | PYRTDMIVYFRLLK | < -0.25
121 | WTAEF | < -0.25
122 | SPTRAGLAAHPSH | < -0.25
123 | SVALISSKG | < -0.25
124 | ALNVFSTVASGLHSMRRIFE | -0.218
125 | SVSTHSIPAACRLVLKVTKV | < -0.25
126 | RRGLCEGGVGGYDI | < -0.25
127 | LTM | -0.247
128 | YPRARPPTTD | < -0.25
129 | SRQIQTSKLRGSRRVKI | < -0.25
130 | FQFQFGYMCRVSD | < -0.25

Row | Substance | growth estimate
131 | RIG | < -0.25
132 | LFKQRVSNNTWSGSPASGTL | < -0.25
133 | PFETRWGRNCPGPCFI | < -0.25
134 | NWKLGALRKLQKATPIVGHH | < -0.25
135 | WGAEASHCDLRGICVNGWSY | < -0.25
136 | LVSKRWFNV | < -0.25
137 | PRILVCERRGPK | < -0.25
138 | DRDYPQG | < -0.25
139 | SNWSNHPNVRTMISGCECGL | < -0.25
140 | GRAIRPLGTR | < -0.25
141 | RVTESESKSQRCEPEDMLVC | < -0.25
142 | LDKTDE | < -0.25
143 | RVELLSTRPYEASSLDRSEV | < -0.25
144 | GISD | < -0.25
145 | TRPFADGR | < -0.25
146 | PPVVTLS | < -0.25
147 | VATRGLQDSTGNCDSFSGS | < -0.25
148 | RLSGTSLNPSNTCEYGFQGV | < -0.25
149 | NNRSGTVFPSHWVNWGA | < -0.25
150 | HPSSGRTDYATTFFLEEYSV | -0.127
151 | DSLLTGNADVVC | < -0.25
152 | SRGVEADLLLEYSASRI | < -0.25
153 | TSRDRIFGPSITFNR | < -0.25
154 | GGLPCCPVKGHAFSRMCGTL | < -0.25
155 | HAIT | < -0.25
156 | LRYILFEP | < -0.25

Row | Substance | growth estimate
157 | TRCLATSVRLEVFMRIGGR | < -0.25
158 | GRLGYT | < -0.25
159 | PASWHKNIIYER | < -0.25
160 | TFSVR | < -0.25
161 | SHKGRLLRNASARSVPISD | -0.231
162 | ISITLTTHYSSPAAPYALGD | < -0.25
163 | LRLQPHSRL | < -0.25
164 | LIKGTASAPAHSPACGPAHQ | < -0.25
165 | LRLMRMGYSRLLRIGEPGQQ | < -0.25
166 | RLGWPLGWVRSQVYAS | < -0.25
167 | AAFIPTRITWLSKRAQSTAK | < -0.25
168 | SVYRVGGNFVA | < -0.25
169 | GASQESIRLI | < -0.25
170 | HSRIQASREASHTAPTSVRL | < -0.25
171 | FESDYSEYCESLCSKPAITY | < -0.25
172 | LATVRGLGLKDRTNVPHVGI | < -0.25
173 | TPVLTDTRQMLEGAQTAGSA | < -0.25
174 | SVAQLARADSRLSSREGFLR | < -0.25
175 | DQFTLNTIFKRESRDVHSNV | -0.246
176 | ALYLRTPSVLEAPGRARGVS | < -0.253
177 | NIWDVYTPRLRGRGAELVVL | < -0.25
178 | LLSIRENQNWMAAIVTGSVT | < -0.25
179 | VCHTKHNL | < -0.25
180 | RWEIAFPETFCGPLMIKAPR | < -0.25
181 | IERSSHGVMLLRDYGLDEGG | < -0.25
182 | RSTLFHPLRML | < -0.25

Row | Substance | growth estimate
183 | VGLRNSTQPSTGTKNVGCKY | < -0.25
184 | IVARFIKMALFE | -0.246
185 | RVGLRGSNPRV | < -0.25
186 | LPPHCDGGGL | < -0.25
187 | LNVAPDDCGRRM | < -0.25
188 | DSTLGCLMGSLFRNPVITWV | -0.225
189 | RLGRIVMRRGTIIPARQSLS | < -0.25
190 | IPFRQVRHTGPTKA | < -0.25
191 | VICISAHRVEFNVRDSILGE | < -0.25
192 | CWNRTFCSC | < -0.25
193 | RTSR | < -0.25
194 | NGEDADRLKAH | < -0.25
195 | CQSGGAVIDRIVYLRRELNV | < -0.25
196 | KSGWFW | < -0.25
197 | GVA | < -0.25
198 | VGERPRSSQAKVCLCDSLPT | < -0.25
199 | TDTGREAVIRKELIPCNMNL | < -0.25
200 | GNGRRKIPHFSQNIVSATNV | < -0.25
201 | LAGIWLIGVGDPGPVGETKD | < -0.25
